Reference: PubChem BioAssay AID720533 (National Center for Advancing Translational Sciences (NCATS), 2013)
Where “and” joins values, the source holds several entries; their conditions need not be identical. Equal entries are not always repeated. Among all 18,000 compounds or so, about 750 (4.2%) were called active. The inconclusive results got no clear call from the source; some entries with a clear call stand among them for comparison. Calls follow the shape of the full dose curve; tested in HEK293 cells. Where the call is inconclusive, the potency comes from a doubtful curve fit. The source holds several records for some structures; these can differ, active in one and inactive in another.

Assay: qHTS for Inhibitors of binding or entry into cells for Lassa Virus
Conditions: Lassa virus pseudotyped entry inhibition, cell-based qHTS; activity change, negative = inhibition: at 49.2 µM (top of the series) unless noted
% is scaled to controls: 0 for no effect and ±100 for the full control effect; potency is read from the fitted curve at half-maximal effect.

SMILES	Potency	activity change, negative = inhibition
O=C1C2CC=CCC2C(=O)N1SC(Cl)(Cl)Cl (stereo not drawn)	active: 10 µM	
COCC1=C2c3ccccc3[C@H](C[N+](=O)[O-])C(C(=O)OC)(C(=O)OC)C[C@@H]2n2c(=O)n(-c3ccccc3)c(=O)n2C1	active: 7.08 µM	
C=C1CCC2[C@](C)(CO)[C@H](O)CC[C@@]2(C)[C@@H]1C/C=C1/C(=O)OC[C@H]1O (stereo partly drawn)		inactive: -9.45%
COC(=O)CCc1c(C)[nH]c(C(=O)OCc2ccccc2)c1C	inconclusive: 1.58 µM [inhibitor, full curve]	
CC(C)(C)OC(=O)C1=NOC2(C=CC(=O)C=C2)C1	inconclusive: 35.5 µM [inhibitor, single point]	
COC(=O)N(C=Cc1ccc(OC)cc1)CCc1ccc(OC)c(OC)c1		inactive: 1.23% [at 8.59 µM]
COCOCCn1cc(CN2CCS(=O)(=O)N(Cc3ccc(-c4ccc(Cl)c(Cl)c4)cc3)C(C(C)C)C2=O)nn1 (stereo not drawn)	inconclusive: 14.1 µM [inhibitor, partial curve, poor fit]	
O=c1[nH]c(=O)n([C@@H]2C[C@H](O)[C@H](CO)O2)cc1C(F)(F)F	inconclusive: 7.08 µM [inhibitor, partial curve, poor fit]	
S=c1nc[nH]c2nc[nH]c12	active: 14.1 µM	
CCCCCCCCCCCCCCCC[N+](C)(C)C	inconclusive: 35.5 µM [inhibitor, single point]	
O=C(O)CCc1nc2ccccc2[nH]1		inactive: -11%
Cc1ccc(-c2c(C)cc3oc(=O)cc(-c4ccccc4)c3c2C)cc1	inconclusive: 7.08 µM [inhibitor, full curve]	
OCc1ccc(-c2nn(Cc3ccccc3)c3ccccc23)o1	inconclusive: 3.98 µM [inhibitor, full curve]	
CN1C[C@H](CNC(=O)OCc2ccccc2)C[C@@H]2c3cccc4c3c(cn4C)C[C@H]21	inconclusive: 35.5 µM [inhibitor, partial curve] and inconclusive: 35.5 µM [inhibitor, single point]	
Cc1cccc(CNc2ncnc3ccc(-c4ccccc4CN(C)C)cc23)c1	inconclusive: 35.5 µM [inhibitor, single point]	
COc1cccc(-c2cc(=O)c3cc(NC(=O)c4ccc(Cl)cc4)ccc3[nH]2)c1		inactive: 0.683%
COc1ccccc1N1CCN(C[C@@H](C(=O)NC(C)(C)C)c2ccccc2)CC1		inactive: -16.4%
OC(c1cccnc1)c1ccc2c(c1)CN(Cc1cn(-c3ccccc3)nc1-c1ccccc1)CCO2 (stereo not drawn)	inconclusive: 35.5 µM [inhibitor, single point]	
CCCSS/C(CCO)=C(\C)N(C=O)Cc1cnc(C)nc1N	inconclusive: 35.5 µM [inhibitor, partial curve, poor fit]	
CCCC(C(=O)OCCN(CC)CC)(c1ccccc1)c1ccccc1	inconclusive: 12.6 µM [inhibitor, partial curve]	
COc1ccc2cc(CNCc3ccccc3Cl)c(N3CCCC(CO)C3)nc2c1 (stereo not drawn)		inactive: -2.48%

Rewritten with each value named: entries from further up.
COCC1=C2c3ccccc3[C@H](C[N+](=O)[O-])C(C(=O)OC)(C(=O)OC)C[C@@H]2n2c(=O)n(-c3ccccc3)c(=O)n2C1
  Potency: active: 7.08 µM
CN1C[C@H](CNC(=O)OCc2ccccc2)C[C@@H]2c3cccc4c3c(cn4C)C[C@H]21
  Potency: inconclusive: 35.5 µM [inhibitor, partial curve] and inconclusive: 35.5 µM [inhibitor, single point]
CCCSS/C(CCO)=C(\C)N(C=O)Cc1cnc(C)nc1N
  Potency: inconclusive: 35.5 µM [inhibitor, partial curve, poor fit]

Further results follow:

SMILES	Potency	activity change, negative = inhibition
CCCCCCCCCOc1ccc2[nH]cc(CCN)c2c1	active: 35.5 µM	
Cc1ccc([C@H]2C[C@@H](n3cc(COC(=O)c4ccccc4)nn3)[C@H](O)CN2C(=O)C2CCCCC2)cc1		inconclusive: -39.7% [inhibitor]
Clc1ccc(COC(Cn2ccnc2)c2ccc(Cl)cc2Cl)cc1 (stereo not drawn)	active: 35.5 µM	
COc1ccc(-n2c(CNC(=O)c3ccc(OC)cc3OC)nnc2SC)cc1	inconclusive: 3.55 µM [inhibitor, partial curve]	
Clc1ccccc1C(c1ccccc1)(c1ccccc1)n1ccnc1	active: 12.6 µM	
C[C@H]1C/C=C/[C@@H]2[C@@H]3O[C@]3(C)[C@@H](C)[C@H]3[C@H](Cc4ccccc4)NC(=O)[C@]32OC(=O)O/C=C/[C@](C)(O)C1=O	inconclusive: 3.55 µM [inhibitor, partial curve]	
O=[N+]([O-])c1ccc(Oc2ccc(N=C=S)cc2)cc1	inconclusive: 39.8 µM [inhibitor, partial curve, poor fit]	
CCn1c(-c2nonc2N)nc2cnc(Oc3cccc(NC(=O)c4ccc(OCCN5CCOCC5)cc4)c3)cc21	inconclusive: 19.9 µM [inhibitor, single point]	
Nc1cc(N2CCCCC2)nc(N)[n+]1OS(=O)(=O)[O-]	inactive	
CCN(CCCc1ccccc1)CCCc1ccccc1	inconclusive: 12.6 µM [inhibitor, single point]	
C[C@@H](C1=C(CCN(C)C)Cc2ccccc21)c1ccccn1	inconclusive: 35.5 µM [inhibitor, partial curve, poor fit]	
O=C(CCN1CCN2CCCC2C1)N1c2ccccc2Sc2ccc(Cl)cc21 (stereo not drawn)	inconclusive: 35.5 µM [inhibitor, single point]	
CCCCC(CC)COC(=O)c1ccccc1O (stereo not drawn)		inactive: -21.9%
CCN1C(=O)[C@@H]2[C@H]3[C@H](O)[C@H](O)CC(=NOC[C@@H](O)[C@H]4O[C@@H]5OC(C)(C)O[C@H]5[C@@H]4O)[C@@H]3CC[C@H]2C1=O	inconclusive: 0.473 µM [inhibitor, partial curve]	
O=C1c2cc(O)cc(O)c2OC[C@@H]1c1ccc(O)c(O)c1		inactive: -3.06%
CCCCc1nn(-c2ccccc2C(F)(F)F)c(=O)n1Cc1ccc(-c2ccccc2S(=O)(=O)NC(=O)c2sccc2C)cc1	inconclusive: 35.5 µM [inhibitor, single point]	
CCSc1ccc2c(c1)N(CCCN1CCN(C)CC1)c1ccccc1S2		inactive: -17.3% [at 17.8 µM]
CC(=O)c1ccsc1-c1c(C)cc2oc(=O)cc(-c3ccccc3)c2c1C	inconclusive: 14.1 µM [inhibitor, partial curve]	
O=C(CN1CCN(Cc2ccc3c(c2)OCO3)CC1)N1c2ccccc2Sc2ccccc21	inconclusive: 25.1 µM [inhibitor, partial curve]	
C[C@]12CCC3C(CC[C@H]4C[C@H](O)CC[C@]34C)[C@@H]1CC[C@@H]2C(=O)CO (stereo partly drawn)		inactive: -14%
CCCC(Cn1cncn1)c1ccc(Cl)cc1Cl (stereo not drawn)	inconclusive: 17.8 µM [inhibitor, partial curve, poor fit]	

SMILES	Potency	activity change, negative = inhibition
O=C([C@@H]1C[C@@H](Sc2nc3ccccc3[nH]2)CN1Cc1ccc(Cl)cc1)N1CCN(c2ccccc2F)CC1	inconclusive: 12.6 µM [inhibitor, partial curve]	
CC(=O)c1ccc2c(c1)N(CCCN1CCN(CCO)CC1)c1ccccc1S2	active: 28.2 µM	
CC(=O)Oc1ccc(/C=C/C(=O)CC2OC(Oc3cc(OC(C)=O)c4c(c3)O[C@@H](c3ccc(OC(C)=O)cc3)CC4=O)C(OC(C)=O)C(OC(C)=O)C2OC(C)=O)cc1 (stereo partly drawn)	inconclusive: 20 µM [inhibitor, partial curve]	
COc1cc2c(cc1OC)C1N(CC2)C(=O)CCC12C(=O)CCCC2=O (stereo not drawn)	inconclusive: 35.5 µM [inhibitor, single point]	
O=C(O)c1cc(=O)c2c(OCC(O)COc3cccc4oc(C(=O)O)cc(=O)c34)cccc2o1	inconclusive: 35.5 µM [inhibitor, single point]	
CCCCCCCCNCCS(=O)(=O)NCc1ccccc1OC		inactive: -7.8%
Oc1c(Cl)cc(Cl)cc1Sc1cc(Cl)cc(Cl)c1O	inconclusive: 14.1 µM [inhibitor, full curve]	
CCCCOc1ccc(CC(=O)NO)cc1	inconclusive: 35.5 µM [inhibitor, single point] and inconclusive: 8.91 µM [inhibitor, partial curve, poor fit]	
CN(C)c1ccc(/C=C2\C(=O)Nc3ccccc32)cc1	active: 14.1 µM	
Cc1ccc(O)c([C@H](CCN(C(C)C)C(C)C)c2ccccc2)c1	inconclusive: 35.5 µM [inhibitor, single point]	
CCCN1Cc2cc(OC)ccc2-c2ccccc2S1(=O)=O	inconclusive: 11.2 µM [inhibitor, single point]	
CC(C)c1cc2c(c(O)c1O)[C@@]1(C(=O)O)CCCC(C)(C)[C@@H]1CC2	inconclusive: 14.1 µM [inhibitor, single point]	
COC(=O)N[C@@H](c1ccc(Br)cc1)C(C(=O)OC)C(=O)OC		inconclusive: 9.26% [inhibitor] [at 8.59 µM]
COC(=O)[C@@]1(O)C[C@@H]2O[C@@]1(C)n1c3ccccc3c3c4c(c5c6ccccc6n2c5c31)C(=O)NC4		inactive: -19.6%
Cc1ccc2c(c1)Cc1c(C(=O)NC3CCCCC3)nn(-c3ccc(Cl)cc3Cl)c1-2		inactive: -8.07%
O=C(c1ccc(C(F)(F)F)cc1)N1CCC(=O)N([C@H](COCc2ccc(C(F)(F)F)cc2)Cc2ccccc2)CC1	inconclusive: 12.6 µM [inhibitor, partial curve]	
CCN1CCN(c2cc(-c3ccc(F)cc3)c3c(n2)CCCCCC3)CC1	active: 12.6 µM	
COc1cc(OC)c2c(-c3cccc(-c4ccc(O)cc4)c3)cc(=O)oc2c1	inconclusive: 8.91 µM [inhibitor, full curve, poor fit]	
COc1ccc(-n2ccc(-c3sc(NCc4cc(OC)c5c(c4)OCO5)nc3C)n2)cc1	inconclusive: 10 µM [inhibitor, partial curve]	
CC(C)Oc1cc(-n2nc(C(C)(C)C)oc2=O)c(Cl)cc1Cl	inconclusive: 35.5 µM [inhibitor, single point]	
C=C1CCC2C(C)(CO)C(O)CCC2(C)C1C/C=C1\C(=O)OCC1O (stereo not drawn)	inconclusive: 28.2 µM [inhibitor, partial curve, poor fit]	
